Source: the supplement of paper PMC3682954
Where “and” joins values, the source holds several entries; their conditions need not be identical. Identical values can stand only once. Counter-ions that a name gives are not always drawn. ± gives the standard deviation of the averaged measurements. The list shows a part of the results. Many values rest on one well or one pass, so single values are uncertain.

Tested on: RAW 264.7
Assay: HMGB1-induced TNF-alpha production relative to HMGB1-stimulated control; higher = more TNF-alpha secretion (less inhibition)
Conditions: stimulus: HMGB1 5 ug/ml, 18 h
[1] = compound concentration: 1 ug/ml

| SMILES | HMGB1-induced TNF-alpha production (compound concentration: 3 uM) | HMGB1-induced TNF-alpha production [1] |
| --- | --- | --- |
| Fc1ccc(CN(C2=NCCN2)c2c(Cl)cccc2Cl)cc1 [IMID-4F hydrochloride] | 53.5% |  |
| CCOC(=O)O[C@]1(C(=O)OCCl)CC[C@H]2[C@@H]3CCC4=CC(=O)C=C[C@]4(C)[C@H]3[C@@H](O)C[C@@]21C | 59% |  |
| O=C(O)C(=O)O.[NH-][C@@H]1CCCC[C@H]1[NH-].[Pt+2] [Oxaliplatin] | 157% |  |
| Cc1ccc(NC(=O)c2ccc(CN3CCN(C)CC3)cc2)cc1Nc1nccc(-c2cccnc2)n1 [Imatinib] | 99.6 ± 2.1% |  |
| Cc1ccc(NC(=O)c2ccc(CN3CCN(C)CC3)cc2)cc1Nc1nccc(-c2cccnc2)n1 | 101% |  |
| Oc1cc2c(c(Cl)c1O)CCNCC2c1ccccc1 (racemic) [(±)-6-Chloro-PB hydrobromide] | 78.4% |  |
| Cc1nn(-c2ccccc2)c(C)c1C=NN1CCN(Cc2ccccc2)CC1 | 93.6% |  |
| CCOC(=O)COc1ccc2c(=O)cc(-c3ccccc3)oc2c1 | 78% |  |
| NS(=O)(=O)c1cc2c(cc1Cl)NC(C(Cl)Cl)NS2(=O)=O (configuration not stated) [Trichloromethiazide] | 94.6% |  |
| NS(=O)(=O)c1cc2c(cc1Cl)NC(C(Cl)Cl)NS2(=O)=O (configuration not stated) [Trichlormethiazide] | 120% |  |
| NS(=O)(=O)c1cc2c(cc1Cl)NC(C(Cl)Cl)NS2(=O)=O (configuration not stated) | 88.4% |  |
| CN[C@@H]1[C@H](O)[C@H](NC)[C@H]2O[C@@]3(O)C(=O)C[C@@H](C)O[C@H]3O[C@@H]2[C@H]1O | 88.7% |  |
| CN[C@@H]1[C@H](O)[C@H](NC)[C@H]2O[C@@]3(O)C(=O)C[C@@H](C)O[C@H]3O[C@@H]2[C@H]1O [Spectinomycin dihydrochloride] | 127% |  |
| CN[C@@H]1[C@H](O)[C@H](NC)[C@H]2O[C@@]3(O)C(=O)C[C@@H](C)O[C@H]3O[C@@H]2[C@H]1O [Spectinomycin dihydrochloride pentahydrate] |  | 69.5% |
| CN[C@@H]1[C@H](O)[C@H](NC)[C@H]2O[C@@]3(O)C(=O)C[C@@H](C)O[C@H]3O[C@@H]2[C@H]1O [Spectinomycin] | 97.7% |  |
| CN[C@H](CC(=O)O)C(=O)O [N-Methyl-D-aspartic acid] | 115% |  |
| O=C1C[C@@H](c2ccc(O)c(O)c2)Oc2cc(O)cc(O)c21 [Eriodictyol;  (3',4',5,7-tetrahydroxyflavanone)] |  | 72.3% |
| CCN(CC)c1ncnc2c1ncn2C1OC(CO)C(O)C1O (configuration not stated) |  | 64.3% |
| Cc1onc(-c2ccccc2Cl)c1C(=O)N[C@@H]1C(=O)N2[C@@H]1SC(C)(C)[C@@H]2C(=O)O | 77.1% |  |
| Cc1onc(-c2ccccc2Cl)c1C(=O)N[C@@H]1C(=O)N2[C@@H]1SC(C)(C)[C@@H]2C(=O)O [Cloxacillin sodium salt] | 86% |  |
| C#Cc1cccc(Nc2ncnc3cc(OCCOC)c(OCCOC)cc23)c1 [Erlotinib] | 84.7 ± 25% |  |
| CN(CCO)CC(O)Cn1cnc2c1c(=O)n(C)c(=O)n2C (configuration not stated) | 107% |  |
| Cn1c(=O)c2[nH]c(-c3ccccc3)nc2n(C)c1=O [1,3-Dimethyl-8-phenylxanthine] | 116% |  |
| CC(C)Nc1cccnc1N1CCN(C(=O)c2cc3cc(NS(C)(=O)=O)ccc3[nH]2)CC1 [Delavirdine] | 93.3% |  |
| OC[C@H]1NC[C@H](O)[C@@H](O)[C@@H]1O [1-Deoxynojirimycin hydrochloride] | 98.1% |  |

| SMILES | HMGB1-induced TNF-alpha production (compound concentration: 3 uM) | HMGB1-induced TNF-alpha production [1] |
| --- | --- | --- |
| CC12CCC(CC1=O)C2(C)C [D-Camphor] |  | 81.9% |
| CC12CCC(CC1=O)C2(C)C (configuration not stated) | 81% |  |
| C[C@@H]1NC(=O)[C@@H](N)CNC(=O)[C@H](C2CCNC(=N)N2)NC(=O)/C(=C/NC(N)=O)NC(=O)[C@H](CNC(=O)CC(N)CCCN)NC1=O.N=C1NCC[C@H]([C@@H]2NC(=O)/C(=C/NC(N)=O)NC(=O)[C@H](CNC(=O)C[C@@H](N)CCCN)NC(=O)[C@H](CO)NC(=O)[C@@H](N)CNC2=O)N1 | 84.5% |  |
| CN[C@@H]1[C@@H](O[C@H]2O[C@H](CO)[C@@H](N)[C@H](O)[C@H]2O)OC2C[C@@H](N)[C@@H](O[C@H]3[C@H](O)[C@@H](O)[C@H](N)C[C@@H]3N)OC2[C@@H]1O (some centres not stated) [Apramycin] | 99.23 ± 0.98% |  |
| CN[C@@H]1[C@@H](O[C@H]2O[C@H](CO)[C@@H](N)[C@H](O)[C@H]2O)OC2C[C@@H](N)[C@@H](O[C@H]3[C@H](O)[C@@H](O)[C@H](N)C[C@@H]3N)OC2[C@@H]1O (some centres not stated) | 88.1% |  |
| Cc1c(-c2ccccc2)oc2c(C(=O)OCCN3CCCCC3)cccc2c1=O [Flavoxate hydrochloride] | 88.7% |  |
| NCCCC(=O)O [gamma-AMINOBUTYRIC ACID] | 83.5% |  |
| CCCCCCCCCCCCCCCCCCCCCCO | 90.1% |  |
| CCN(CC)CCNC(=O)c1cc(Cl)c(N)cc1OC [Metoclopramide monohydrochloride] | 68.3% |  |
| CCN(CC)CCNC(=O)c1cc(Cl)c(N)cc1OC | 86.2% |  |
| CCN(CC)CCNC(=O)c1cc(Cl)c(N)cc1OC [Metoclopramide hydrochloride] | 107% |  |
| CCN(CC)CCNC(=O)c1cc(Cl)c(N)cc1OC [Metoclopramide] | 115% |  |
| NCCCNCCCCNCCCN [Spermine tetrahydrochloride] | 114% |  |
| CN(C)C/C=C(/c1ccc(Br)cc1)c1cccnc1 [Zimelidine dihydrochloride] | 88.2% |  |
| CN(C)C/C=C(/c1ccc(Br)cc1)c1cccnc1 [Zimelidine dihydrochloride monohydrate] | 78% |  |
| CC(C)(CO)C(O)C(=O)NCCCO (configuration not stated) [Panthenol (D)] | 78.3% |  |
| CC(C)(CO)C(O)C(=O)NCCCO (configuration not stated) | 84.2% |  |
| CCOc1ccc2ccccc2c1C(=O)N[C@@H]1C(=O)N2[C@@H]1SC(C)(C)[C@@H]2C(=O)O [Nafcillin sodium salt monohydrate] | 119% |  |
| CCOc1ccc2ccccc2c1C(=O)N[C@@H]1C(=O)N2[C@@H]1SC(C)(C)[C@@H]2C(=O)O | 98.3% |  |
| Cn1cnc2c1c(=O)[nH]c(=O)n2C [Theobromine] | 107 ± 17% | 76.8% |
| Cn1cnc2c1c(=O)[nH]c(=O)n2C | 83.7% |  |
| C[n+]1c2cc(N)ccc2cc2ccc(N)cc21 | 62.2 ± 8.9% |  |
| O=C(N[C@H](CO)[C@H](O)c1ccc([N+](=O)[O-])cc1)C(Cl)Cl [Chloramphenicol] | 84 ± 20% | 70.4% |
| O=C(N[C@H](CO)[C@H](O)c1ccc([N+](=O)[O-])cc1)C(Cl)Cl | 87.5 ± 7.1% |  |
| O=C(O)CCNC(=O)c1ccccc1 | 84.7% |  |

| SMILES | HMGB1-induced TNF-alpha production (compound concentration: 3 uM) | HMGB1-induced TNF-alpha production [1] |
| --- | --- | --- |
| O=C(O)C1OC(O)C(O)C(O)C1O (configuration not stated) |  | 75.8% |
| CCC[C@@H]1C[C@@H](C(=O)N[C@@H]([C@H]2O[C@H](SC)[C@H](O)[C@@H](O)[C@H]2O)[C@H](C)Cl)N(C)C1 [Clindamycin hydrochloride] | 77.8% |  |
| CCC[C@@H]1C[C@@H](C(=O)N[C@@H]([C@H]2O[C@H](SC)[C@H](O)[C@@H](O)[C@H]2O)[C@H](C)Cl)N(C)C1 [Clindamycin] | 93.6 ± 7.9% |  |
| CCC[C@@H]1C[C@@H](C(=O)N[C@@H]([C@H]2O[C@H](SC)[C@H](O)[C@@H](O)[C@H]2O)[C@H](C)Cl)N(C)C1 | 88.2 ± 4.3% |  |
| C=C1/C(=C\C=C2/CCC[C@]3(C)[C@@H]([C@H](C)CCCC(C)C)CC[C@@H]23)C[C@@H](O)C[C@@H]1O [Alfacalcidol] | 95.6 ± 11% |  |
| CCN(CC)CCOC(=O)c1cc(Cl)c(N)cc1OC [SDZ-205,557 hydrochloride] | 102% |  |
| NC/C=C/C(=O)O [(E)-4-amino-2-butenoic acid] | 115% |  |
| CC(=O)N[C@@H](Cc1c[nH]c2ccccc12)C(=O)OCc1cc(C(F)(F)F)cc(C(F)(F)F)c1 | 81.1% |  |
| Cc1ccc2c(c1)c1c3n2CCNC3CCC1 (configuration not stated) [Pirlindole mesylate] | 101% |  |
| CCN(c1nc(N)c(C(=O)NC(=N)N)nc1Cl)C(C)C [5-(N-Ethyl-N-isopropyl)amiloride] | 77.5% |  |
| O=C(O)Cc1c[nH]c2ccc(O)cc12 [5-Hydroxyindolacetic acid] | 105% |  |
| CN(C)CCC=C1c2ccccc2COc2ccccc21 | 82.3% |  |
| CN(C)CCC=C1c2ccccc2COc2ccccc21 [Doxepin hydrochloride] | 77.6 ± 6.4% |  |
| CN(C)CCC=C1c2ccccc2COc2ccccc21 [Doxepin] | 104% |  |
| CC(C)[N+](C)(CCOC(=O)C1c2ccccc2Oc2ccccc21)C(C)C [Propantheline bromide] | 115 ± 6% |  |
| CC(C)[N+](C)(CCOC(=O)C1c2ccccc2Oc2ccccc21)C(C)C | 84.2% |  |
| CN1CCC[C@@H]1Cc1c[nH]c2ccc(CCS(=O)(=O)c3ccccc3)cc12 | 81.5% |  |
| COc1ccccc1Oc1c(NS(=O)(=O)c2ccc(C(C)(C)C)cc2)nc(-c2ncccn2)nc1OCCO [Bosentan] | 102 ± 6% |  |
| Nc1ccccc1S(N)(=O)=O [2-Aminobenzenesulfonamide] | 87% |  |
| OCc1cccnc1 | 95.2% and 110% |  |
| NC[C@@H]1O[C@H](O[C@H]2[C@@H](O)[C@H](O[C@@H]3[C@@H](O)[C@H](N)C[C@H](N)[C@H]3O[C@H]3O[C@H](CO)[C@@H](O)[C@H](O)[C@H]3N)O[C@@H]2CO)[C@H](N)[C@@H](O)[C@@H]1O [Paromomycin sulfate] | 102 ± 6.1% |  |
| NC[C@@H]1O[C@H](O[C@H]2[C@@H](O)[C@H](O[C@@H]3[C@@H](O)[C@H](N)C[C@H](N)[C@H]3O[C@H]3O[C@H](CO)[C@@H](O)[C@H](O)[C@H]3N)O[C@@H]2CO)[C@H](N)[C@@H](O)[C@@H]1O | 91.7% |  |
| CC[C@]1(O)C[C@H]2CN(CCc3c([nH]c4ccccc34)[C@@](C(=O)OC)(c3cc4c(cc3OC)N(C=O)[C@H]3[C@@](O)(C(=O)OC)[C@H](OC(C)=O)[C@]5(CC)C=CCN6CC[C@]43[C@@H]65)C2)C1 [Vincristine] | 44.3% |  |
| CC[C@]1(O)C[C@H]2CN(CCc3c([nH]c4ccccc34)[C@@](C(=O)OC)(c3cc4c(cc3OC)N(C=O)[C@H]3[C@@](O)(C(=O)OC)[C@H](OC(C)=O)[C@]5(CC)C=CCN6CC[C@]43[C@@H]65)C2)C1 | 157 ± 47% |  |
| CC[C@]1(O)C[C@H]2CN(CCc3c([nH]c4ccccc34)[C@@](C(=O)OC)(c3cc4c(cc3OC)N(C=O)[C@H]3[C@@](O)(C(=O)OC)[C@H](OC(C)=O)[C@]5(CC)C=CCN6CC[C@]43[C@@H]65)C2)C1 [Vincristine sulfate] | 136% |  |
